Source: patent US20160008471A1, “TRANSDERMAL FORMULATIONS” (priority 2013, published 2016)
The name of at least one read-out is uncertain.

Test: Recovery of actives in individual solvents after 1 month at 50° C.
Type: physicochemical

abamectin
% Recovery after 1 month at 50° C. (in AGNIQUE AMD 10): 84%
% Recovery after 1 month at 50° C. (in AGNIQUE AMD 810): 85%
% Recovery after 1 month at 50° C. (in Cremophor): 58.7%
% Recovery after 1 month at 50° C. (in DMSO): 76.5%
% Recovery after 1 month at 50° C. (in Dipropylenglycol dimethylether): 70.6%
% Recovery after 1 month at 50° C. (in Ecoteric T80): 71.6%
% Recovery after 1 month at 50° C. (in Glycerol Formal): 59.1%
% Recovery after 1 month at 50° C. (in Isopropyl Mirystate): 96.9%
% Recovery after 1 month at 50° C. (in Isopropyleneglycol): 69.1%
% Recovery after 1 month at 50° C. (in Isosorbide): 89.3%
% Recovery after 1 month at 50° C. (in PEG400): 81.3%
% Recovery after 1 month at 50° C. (in Polysorbate 20): 76.6%
% Recovery after 1 month at 50° C. (in Span 80): 79.1%
% Recovery after 1 month at 50° C. (in Tetraglycol): 68.9%
% Recovery after 1 month at 50° C. (in Triacetin): 83.8%
% Recovery after 1 month at 50° C. (in Tripropylene glycol methylether (TPGME)): 78.7%
